The entries are a selection whose mix differs from that of the whole data set. At the low end of the ranking the order means little.

By UniProt entry, the sequences of proteins in these tests, tags left out. Where a name states a change or a piece, a line headed by the entry shows the natural chain unless it says otherwise.
UniProt P41161: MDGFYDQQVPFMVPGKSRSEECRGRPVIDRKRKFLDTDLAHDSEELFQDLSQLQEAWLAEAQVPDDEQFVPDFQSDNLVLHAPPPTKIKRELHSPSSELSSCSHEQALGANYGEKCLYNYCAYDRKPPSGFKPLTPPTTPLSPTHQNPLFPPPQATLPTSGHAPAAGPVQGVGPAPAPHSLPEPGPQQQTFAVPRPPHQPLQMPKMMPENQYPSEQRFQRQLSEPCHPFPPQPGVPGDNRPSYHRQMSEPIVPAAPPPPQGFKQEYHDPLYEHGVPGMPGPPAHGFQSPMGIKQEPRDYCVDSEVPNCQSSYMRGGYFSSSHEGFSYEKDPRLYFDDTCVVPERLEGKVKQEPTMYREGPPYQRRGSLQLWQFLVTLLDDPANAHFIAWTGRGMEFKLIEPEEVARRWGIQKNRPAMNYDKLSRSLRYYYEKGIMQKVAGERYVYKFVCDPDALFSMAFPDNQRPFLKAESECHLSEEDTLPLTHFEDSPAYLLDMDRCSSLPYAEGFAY
UniProt Q01892: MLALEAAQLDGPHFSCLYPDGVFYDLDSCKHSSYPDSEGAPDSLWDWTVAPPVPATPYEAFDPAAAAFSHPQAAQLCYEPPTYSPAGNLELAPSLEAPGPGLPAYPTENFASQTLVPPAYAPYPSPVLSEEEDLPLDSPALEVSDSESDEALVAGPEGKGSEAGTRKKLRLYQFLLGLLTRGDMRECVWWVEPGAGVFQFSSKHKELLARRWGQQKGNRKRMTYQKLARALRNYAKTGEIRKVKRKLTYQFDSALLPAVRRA

Holding throughout (experiment): DAPPL (digital affinity profiling via proximity ligation, sequencing)
Common to all, as to conditions: 10 mM Tris-HCl pH 7.5, 50 mM NaCl, 1 mM DTT, 4% glycerol, room temperature, 30 min; GST-TFs on glutathione beads, 16-mer random dsDNA library, 0.1% …; high values mean tight binding; double strand, one strand shown; scale: fold enrichment (6-mer frequency, TF over GST control)

The target in one assay is T1, FLI1 (UniProt Q01543).
T1 sequence: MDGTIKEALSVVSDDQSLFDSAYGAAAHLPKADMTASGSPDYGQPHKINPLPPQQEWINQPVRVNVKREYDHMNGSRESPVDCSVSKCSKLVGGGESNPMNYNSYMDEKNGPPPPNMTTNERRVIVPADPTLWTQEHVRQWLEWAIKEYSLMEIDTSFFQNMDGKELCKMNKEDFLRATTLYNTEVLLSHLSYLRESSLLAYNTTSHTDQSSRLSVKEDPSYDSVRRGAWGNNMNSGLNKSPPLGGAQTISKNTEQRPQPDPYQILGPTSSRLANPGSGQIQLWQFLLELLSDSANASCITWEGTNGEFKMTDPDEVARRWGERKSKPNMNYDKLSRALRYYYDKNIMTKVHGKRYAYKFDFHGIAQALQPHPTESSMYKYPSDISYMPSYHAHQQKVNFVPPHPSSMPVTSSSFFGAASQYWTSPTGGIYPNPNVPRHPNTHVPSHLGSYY

The target in a further assay is ETV5 (UniProt P41161).
For a further assay, the target named is T2, ETV2 (UniProt O00321).
T2 sequence: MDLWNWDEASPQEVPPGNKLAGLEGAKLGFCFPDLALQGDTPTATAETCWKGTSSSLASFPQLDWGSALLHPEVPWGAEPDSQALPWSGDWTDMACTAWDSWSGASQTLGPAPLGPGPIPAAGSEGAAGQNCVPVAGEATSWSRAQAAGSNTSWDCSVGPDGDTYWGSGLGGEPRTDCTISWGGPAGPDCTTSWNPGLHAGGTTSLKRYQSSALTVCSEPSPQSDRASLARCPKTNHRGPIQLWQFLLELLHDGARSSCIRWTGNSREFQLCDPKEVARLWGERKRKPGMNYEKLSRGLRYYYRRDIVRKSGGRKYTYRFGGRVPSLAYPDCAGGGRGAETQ

The next assay has as its target T3, ETV3L (UniProt Q6ZN32).
T3 sequence: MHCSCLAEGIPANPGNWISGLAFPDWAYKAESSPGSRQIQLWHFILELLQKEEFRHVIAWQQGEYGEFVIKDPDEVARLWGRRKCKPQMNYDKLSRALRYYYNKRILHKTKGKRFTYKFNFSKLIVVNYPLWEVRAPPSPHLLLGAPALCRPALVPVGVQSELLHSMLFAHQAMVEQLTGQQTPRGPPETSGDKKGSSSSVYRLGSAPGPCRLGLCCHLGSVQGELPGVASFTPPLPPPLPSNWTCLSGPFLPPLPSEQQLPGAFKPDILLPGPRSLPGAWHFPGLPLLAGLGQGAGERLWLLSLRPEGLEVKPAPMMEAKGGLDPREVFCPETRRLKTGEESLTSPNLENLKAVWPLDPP

The target of the next assay is T4, EHF (UniProt Q9NZC4).
T4 sequence: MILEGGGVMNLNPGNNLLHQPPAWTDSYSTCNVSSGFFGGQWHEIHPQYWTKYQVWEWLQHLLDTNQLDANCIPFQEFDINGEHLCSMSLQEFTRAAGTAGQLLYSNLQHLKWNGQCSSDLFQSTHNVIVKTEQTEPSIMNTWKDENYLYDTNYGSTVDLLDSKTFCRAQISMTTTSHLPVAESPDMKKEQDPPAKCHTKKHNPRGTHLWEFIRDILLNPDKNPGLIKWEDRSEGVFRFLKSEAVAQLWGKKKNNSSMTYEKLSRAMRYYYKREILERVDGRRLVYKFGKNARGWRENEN

For another assay, the target named is SPIB (UniProt Q01892).

CTATTG: the values for the binding signal with FLI1, with ETV5 and in the assay with ETV2 were 1.33, 1.31 and 1.31, respectively.
For TCCGAT, the binding signal in the assay with FLI1 is 1.32; with ETV5 it was 1.3; with ETV2, 1.15; in the assay with ETV3L it was 1.22.
As to GTTACC, the binding signal with FLI1 turned out to be 0.985; with EHF, 0.982; with SPIB it was 1.14; with ETV5, 1.06; in the assay with ETV2 it was 0.897.
For the sequence GCCAAC, the binding signal is 0.993 in the assay with FLI1; 0.932 with EHF; 0.949 with SPIB; 0.897 with ETV5; 0.893 with ETV2; 0.97 in the assay with ETV3L.
On to TTCAAC, for which the binding signal with FLI1 came to 1.3; with SPIB, 1.38; with ETV5, 1.29; with ETV2, 1.31.
Turning to GACTGC, the binding signal turned out to be 1.03 in the assay with FLI1; 0.882 in the assay with EHF; 0.912 in the assay with SPIB; 0.99 with ETV5; 0.963 in the assay with ETV2.
As to ACATGA, the binding signal with FLI1 amounted to 0.991; with EHF it was 0.972; in the assay with SPIB, 0.867; with ETV5 it was 0.944; with ETV2 it was 0.964; with ETV3L it was 0.853.
Regarding CCTTCG, the binding signal in the assay with FLI1 is 1.31; with SPIB, 1.41; in the assay with ETV5 it was 1.3; in the assay with ETV2, 1.39.
As for CTAAGG, the binding signal with FLI1 is 0.95; with EHF it was 0.971; with SPIB, 0.914; with ETV5, 0.997; in the assay with ETV2, 0.839; in the assay with ETV3L, 0.844.
As to GCATAC, the binding signal with FLI1 came out at 0.987; with EHF it was 1.01; with SPIB, 0.882; with ETV5, 0.928; with ETV2, 0.981; in the assay with ETV3L, 0.965.
As for CAGACT, the binding signal with FLI1 was found to be 0.95; with EHF it was 1.05; with SPIB, 0.976; in the assay with ETV5, 0.991; with ETV2, 1.04; with ETV3L, 0.984.
ATGCGA: the binding signal with FLI1 worked out at 1.18; with EHF, 1.23; with ETV5, 1.17; with ETV2, 1.34.
Consider TTTGTA, for which the binding signal came to 1.64 with FLI1, 1.64 in the assay with ETV5 and 1.69 in the assay with ETV3L.
As to TATTGC, the binding signal with FLI1 was 1.39; with SPIB, 1.37; with ETV5 it was 1.34; in the assay with ETV2 it was 1.22.
With ATCGCG, the binding signal in the assay with FLI1 stood at 0.927; with EHF it was 0.922; in the assay with SPIB, 0.92; with ETV5, 0.887; with ETV2 it was 0.962; with ETV3L, 0.938.
Regarding CCCTGC, the binding signal in the assay with FLI1 was 1.11; with SPIB, 1.16; with ETV5, 1.18; with ETV2, 1.05.
For the sequence CAATGA, the binding signal with FLI1 was 0.95; in the assay with EHF, 0.963; with SPIB, 0.929; with ETV5 it was 0.962; with ETV2, 0.966; in the assay with ETV3L it was 0.92.
On to GACTAT, for which the binding signal with FLI1 was 0.86; in the assay with EHF, 0.914; in the assay with SPIB, 0.99; with ETV5 it was 0.849; in the assay with ETV2, 0.981.
On to AGATTA, for which the binding signal in the assay with FLI1 came to 0.923; with SPIB, 0.974; in the assay with ETV5, 0.982; in the assay with ETV2, 0.966.
As for TCCTAG, the binding signal with FLI1 was 1.23; in the assay with EHF it was 1.22; with ETV5 it was 1.33; in the assay with ETV2 it was 1.23.
Take CCAGCT: the binding signal with FLI1 came out at 0.988; in the assay with EHF, 1.06; with SPIB it was 0.959; in the assay with ETV5, 0.99; in the assay with ETV2 it was 0.986.
On to CACCGC, for which the binding signal with FLI1 was 0.966; in the assay with EHF, 1.08; with SPIB it was 0.981; in the assay with ETV5 it was 0.985; with ETV2, 0.877; in the assay with ETV3L it was 0.985.
Take ATTGTG: the binding signal turned out to be 0.892 in the assay with FLI1; 0.812 with EHF; 0.884 in the assay with SPIB; 0.864 with ETV5; 0.971 with ETV2; 0.941 in the assay with ETV3L.
ATGCCC: the binding signal was 1.38 with FLI1, 1.28 with ETV5 and 1.26 with ETV3L.
For the sequence TGTCTT, the binding signal is 1.29 in the assay with FLI1, 1.26 in the assay with SPIB, 1.24 in the assay with ETV5 and 1.18 in the assay with ETV2.
Regarding CAGCAT, the binding signal in the assay with FLI1 amounted to 1.04; with EHF, 0.955; with SPIB it was 0.98; with ETV5 it was 1.04; in the assay with ETV2, 0.967.
Consider GCAACA, for which the binding signal in the assay with FLI1 turned out to be 0.986; with EHF, 0.984; in the assay with SPIB, 0.991; with ETV5, 0.995; with ETV2, 1.03; with ETV3L it was 0.963.
Turning to TAGCGT, the binding signal was 0.929 with FLI1; 0.922 with SPIB; 1.03 in the assay with ETV5; 0.97 with ETV2; 0.919 with ETV3L.

The record behind these values is article PMC7862700.
